Test results published in US20110306040A1, “CPG RECEPTOR (CPG-R) AND METHODS RELATING THERETO” (priority 1999, published 2011).
Some results were stated once for a whole list of compounds, not compound by compound.

Test system: NF-κB
Test: κB-Luc assay in RAW 264.7 macrophages
Type: cell-based, mouse
Details: CpG oligonucleotide 4 μM, LPS 1 μg/ml, FIG. 1C
Description: RAW 264.7 cells were seeded into 6-well plates (Corning) at a density of 3×10^5 cells per well 24 hours prior to transfection. Plasmids used in transfection were pNF-κB-Luc (Clontech) and pCR3. […] Luciferase activity in lysate supematants was determined using Microlite 2 plates (Dynex) and a ML 3000 Luminometer (Dynatech) all according to manufacture's instructions. […]
To directly evaluate κB-dependent transcription induced by CpG oligonucleotide or MPL treatment, RAW 264.7 macrophage were transfected with an NF-κB-inducible reporter plasmid encoding luciferase under the control of multiple copies of the kappa light chain enhancer (κB-Luc) and the following day treated with adjuvants or cytokines. […] Luciferase activity in cell lysates was quantified by luminometry, and results were normalized to the luciferase signal in untreated transfected cells.
The effects of CpG oligonucleotide on κB-dependent luciferase expression were dose- and time-dependent (see FIGS. 1B and 1C). […] Activation was detected at CpG oligonucleotide concentrations as low as 0.25 μM (FIG. 1B), but not at the lowest concentration tested (0.05 μM) (data not shown). […]

Substance: tccatgacgttcctgacgtt [CpG oligonucleotide]
- Time at which κB-dependent luciferase expression reached a plateau: 4 to 6 h
